Data: patent US20120208753A1 (published 2012)
No constants are given. Whether binding was seen depends on the method and setting. Some binding calls cover weakened binding; strength is not graded here. Tags and fused reporters may be left off the sequences shown.

Target: full length GDF-6 fused to a FLAG tag (secreted by transfected CHO cells) (human) (UniProt Q6KF10)
Test: non-reducing PAGE of protein isolated from CHO cells

B1: full length GDF-6 fused to a FLAG tag (secreted by transfected CHO cells) (ligand, human, UniProt Q6KF10 336-455, looked up, not shown: small tags and cut ends)
chain: TAFASRHGKRHGKKSRLRCSKKPLHVNFKELGWDDWIIAPLEYEAYHCEGVCDFPLRSHLEPTNHAIIQTLMNSMDPGSTPPSCCVPTKLTPISILYIDAGNNVVYKQYEDMVVESCGCR
**Q.** Which binding does the source give for B1 here?
**A.** binds
